In US10736900B2, “Combinations of an FGFR inhibitor and an IGF1R inhibitor” (ASTEX THERAPEUTICS LTD, priority 2014, dated 2020):

Legend:
DMS114 cells = assay: Incucyte proliferation (% confluence over time), DMS114 cells, long-term treatment; type: cell-based; conditions: compound A 1 microM, BMS-754807 300 nM, GSK1838705A 1 microM, each alone
[1] = system: most sensitive cancer cell lines; assay: Cell based proliferation assay (alamar blue assay), cancer cell lines; conditions: read-out: IC50 in the most sensitive cancer cell lines

## COc1cc(OC)cc(N(CCNC(C)C)c2ccc3ncc(-c4cnn(C)c4)nc3c2)c1 [compound A]
DMS114 cells
  proliferation (% confluence over time), single agent: initially blocked the proliferation, but after two-three weeks emerging outgrowth of compound insensitive cells was observed
[1]
  IC50: < 10 nM
